The list shows a part of the results.
Each sequence was assayed against OsWRKY34 (Oryza sativa, UniProt Q0JBA9 1-250) (assay: protein-binding microarray (RPBM); PBS, 2% BSA, 51.3 ng/ul salmon testes DNA, 50 uM zinc acetate, 200 nM TF, 25 C, 1 h; high values mean tight binding). Details: protein: recombinant; tags: N-terminal polyhistidine and DsRed monomer fusion (pET32a); label: CyDye5-dUTP incorporated in the synthesized complementary strand; 3' TTTTT single-stranded linker to array surface; dsDNA, one strand shown.
Method in brief: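 An Axon 4000B scanner gave the binding signal as per-feature fluorescence intensity in arbitrary units. This followed washing of a custom Agilent array that had been incubated for 1 h at 25 °C with 200 nM protein in PBS, 2% BSA, salmon testes DNA and 50 µM zinc acetate. The proteins were transcription factors fused at the N-terminus to polyhistidine and DsRed, expressed in E. coli BL21-CodonPlus and purified on Ni–NTA.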

Amino acid sequences for entries named in this document (tags omitted).
UniProt Q0JBA9, entry or part of it: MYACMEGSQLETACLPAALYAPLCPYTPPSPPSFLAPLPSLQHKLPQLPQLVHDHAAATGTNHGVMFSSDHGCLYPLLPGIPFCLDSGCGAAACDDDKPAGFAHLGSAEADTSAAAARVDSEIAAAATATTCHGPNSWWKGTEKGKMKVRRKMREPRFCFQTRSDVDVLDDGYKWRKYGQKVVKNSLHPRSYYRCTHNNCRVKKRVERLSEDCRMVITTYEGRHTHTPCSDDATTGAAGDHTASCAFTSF

Sequence | binding signal
ACATTTCCAGTTTCCACATTCGTCCTTCCGCTTACGCCGACGGAGTCACCTAGTGCAG | 9330 fluorescence intensity (a.u.)
CCCTAACTACGGCGAACCCAGCACACGGGATTGTTACCTTCGGAGTCACCTAGTGCAG | 8210 fluorescence intensity (a.u.)
TTCTTACTCAGGTTTCCTAACTTATCTCTCTCGTTTTCCACGGAGTCACCTAGTGCAG | 8340 fluorescence intensity (a.u.)
GCAACCCACACCTTCTAGGCTTCCACATATTTTCGGAAGTCGGAGTCACCTAGTGCAG | 9220 fluorescence intensity (a.u.)
GCGCATTGGGGCGGGAAGGACGAGGAGGAGGTGGTGGCCGCGGAGTCACCTAGTGCAG | 8130 fluorescence intensity (a.u.)
CGTCATTCGTCCTCCTCCACCATCCCTACTTTCCTAATGACGGAGTCACCTAGTGCAG | 8770 fluorescence intensity (a.u.)
TCTTTTGTTGTCACACGCAGATTCAATTTATTTTCAATTTCGGAGTCACCTAGTGCAG | 8670 fluorescence intensity (a.u.)
ATTATACGTTAATGGCTTTCTCGTTTTGTATACGCTGATTCGGAGTCACCTAGTGCAG | 9600 fluorescence intensity (a.u.)
GTGTTTTTTGTGTGTGTGTGTTATGGTATGGTCAGTTCCTCGGAGTCACCTAGTGCAG | 9240 fluorescence intensity (a.u.)
CGCCATTGCCGTCGCCGTCGGGCTCAGTCTCAGTCATTGCCGGAGTCACCTAGTGCAG | 8510 fluorescence intensity (a.u.)
GTATGTGTGGAGGAGGGGTATAGAATCTGTATTGGCTAACCGGAGTCACCTAGTGCAG | 8780 fluorescence intensity (a.u.)
GATTTGGACTTGTGTAGTTGTGTTGAGTGAAATCTTCCATCGGAGTCACCTAGTGCAG | 8100 fluorescence intensity (a.u.)
GGTAGTTTAAAGTCTGTGTGCAAATACATTTTGTTAAATTCGGAGTCACCTAGTGCAG | 8280 fluorescence intensity (a.u.)
ACGGTAATGCTATCCAACCAATCAACATTTAGTTCCCATACGGAGTCACCTAGTGCAG | 8290 fluorescence intensity (a.u.)
TAAAAATATGTTTTTTTCTCGTGTTGTGTCGGGTGGTATGCGGAGTCACCTAGTGCAG | 10600 fluorescence intensity (a.u.)
TCGAGAAGGACGTCGTTGTCGCGCGCCTCACCTTTGCCGACGGAGTCACCTAGTGCAG | 9290 fluorescence intensity (a.u.)
TGCATTATCGGCTGTGTTTAGTTCAGCGCAAAGTTTGGATCGGAGTCACCTAGTGCAG | 8060 fluorescence intensity (a.u.)
ACAACCATTCTCTTCGTCTACTTTCTCTTCTCCACCAATCCGGAGTCACCTAGTGCAG | 10500 fluorescence intensity (a.u.)
GCCAGCAAGGCAGCAACATATCCTTGCATTTTCCTCCTCACGGAGTCACCTAGTGCAG | 8510 fluorescence intensity (a.u.)
GCTCCGCCTGCCAGATCCATATGAGCCACCTGCGCCGCTACGGAGTCACCTAGTGCAG | 8720 fluorescence intensity (a.u.)
CTTCTTCGTCTCATCCAACCCAAGTACCCAACCCGCGTCGCGGAGTCACCTAGTGCAG | 10300 fluorescence intensity (a.u.)

Sequence | binding signal
GTGTGGTCCAGTTCGTTCCCTGCAGATCCATGGCCGCGCCCGGAGTCACCTAGTGCAG | 8550 fluorescence intensity (a.u.)
ACTTGAAGCAATTTGACTTTGACTAAAGTCAAAAAACGTCCGGAGTCACCTAGTGCAG | 10300 fluorescence intensity (a.u.)
GGCAGTGGAGTGGGGTGGCGTTATGCTGTGTCACGTGGAACGGAGTCACCTAGTGCAG | 8300 fluorescence intensity (a.u.)
CCGTCGCCATAGCCGGACTCCGCGTGAGTTCTCCTCCCCGCGGAGTCACCTAGTGCAG | 8250 fluorescence intensity (a.u.)
CCGTGTTTGAGGTTCGTCATCCGTATTTGAAGTCGGTTTTCGGAGTCACCTAGTGCAG | 10500 fluorescence intensity (a.u.)
TTATGCATGGCTTTGGCTTGGTTTGGTTTGGTTTGAAGAGCGGAGTCACCTAGTGCAG | 11100 fluorescence intensity (a.u.)
TATCAGTGGAGAGCTCGATATTCGGAGGGGTTGGCAGCGACGGAGTCACCTAGTGCAG | 8780 fluorescence intensity (a.u.)
GACCTATTATACATATCACCTCTTAATTTAATTATCTATGCGGAGTCACCTAGTGCAG | 10100 fluorescence intensity (a.u.)
GGGTATGTTTGGGGAGCTTCTAACTTCTGCAGCTTCTCCCCGGAGTCACCTAGTGCAG | 10500 fluorescence intensity (a.u.)
CACTGTGAATGCACTTGGTCAAACTGATTCCACTCGGTCCCGGAGTCACCTAGTGCAG | 8880 fluorescence intensity (a.u.)
GAGCATCACAAGTCGCGACCTCACAGGGAGGGGCGGCGGCCGGAGTCACCTAGTGCAG | 9060 fluorescence intensity (a.u.)
ATAGTAATCCTGGAGTCCTGGACGCCCCAAATAATTAACTCGGAGTCACCTAGTGCAG | 9790 fluorescence intensity (a.u.)
TTGTCATTCTGCATCTCCAATCTATTCTTATGCACTGAGTCGGAGTCACCTAGTGCAG | 8880 fluorescence intensity (a.u.)
GAGTACCTCTCGTTGTCTCCTCCGCTCCTTGCCTCCTTGCCGGAGTCACCTAGTGCAG | 8350 fluorescence intensity (a.u.)
TTTTTCGTTCATGTGCTATCTTGTTCTTCACAAGTGCTTGCGGAGTCACCTAGTGCAG | 8620 fluorescence intensity (a.u.)
CCGGGTCAACTTGCCACATCAGTGAATCCAGACATCTACACGGAGTCACCTAGTGCAG | 8180 fluorescence intensity (a.u.)
GCATTGGCCATTTTTCCTCTTTTGCCCGATTTTTGATTTTCGGAGTCACCTAGTGCAG | 12900 fluorescence intensity (a.u.)
TCCAGGTATATCAAATTTCATCCTTGCACAATCATTATTCCGGAGTCACCTAGTGCAG | 8250 fluorescence intensity (a.u.)
ACCCGTCTCTCTTTCTTTCTTTCTCTCTCTCCTGTGTTTTCGGAGTCACCTAGTGCAG | 8600 fluorescence intensity (a.u.)
CGAACTCCTCTTTTTTCTTTTTCTAATTTCGAAATTTATTCGGAGTCACCTAGTGCAG | 10700 fluorescence intensity (a.u.)
AATAGTGGAGGTAGGTGGGAAAAGTGAATGTTGGAGGTTTCGGAGTCACCTAGTGCAG | 13400 fluorescence intensity (a.u.)

Quoted at random: 2 records from the list, in no set order.
Sequence | binding signal
GACCTATTATACATATCACCTCTTAATTTAATTATCTATGCGGAGTCACCTAGTGCAG | 10100 fluorescence intensity (a.u.)
TTGTCATTCTGCATCTCCAATCTATTCTTATGCACTGAGTCGGAGTCACCTAGTGCAG | 8880 fluorescence intensity (a.u.)

Source: PMC7819943, “Rice protein-binding microarrays: a tool to detect cis-acting elements near promoter regions in rice”
